Measurements reported in PubChem BioAssay AID493246 (Drosophila RNAi Screening Center, 2011)

Screen: 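Identify essential fly genes by loss of cell viability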 (primary screen)
Cells: Drosophila Kc and S2R+ cells
Knock-down reagent: long dsRNA against Drosophila genes
Read-out: 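Raw, unnormalised count of remaining cells in each well; per-plate z-scores of cell number underlie the calls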
Direction: Kc cell number and S2R+ cell number: higher = more cells remaining
Call rule: 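Counted as a hit if cell number falls by a z-score of at least 3 within its plate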
The deposit covers about 21,000 reagents; shown is an unselected part of those with a known target gene and a result. Of all reagents, 429 (2%) were called active. 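Values are raw and not normalised between plates; calls rest on per-plate z-scores that were not deposited.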 A plus sign joins genes that one reagent is predicted to hit. Not stated in the record: the amount of reagent, the time to read-out.

target | DRSC id | Kc cell number, rep 1 | Kc cell number, rep 2 | S2R+ cell number, rep 1 | S2R+ cell number, rep 2 | call
Mal-A2 (GeneID 35825) | DRSC07460 | 1.53e6 | 1.63e6 | 1.28e6 | 1.45e6 | inactive
eIF4E5 (GeneID 38878) | DRSC10975 | 1.57e6 | 1.50e6 | 1.19e6 | 1.18e6 | inactive
CG3860 (GeneID 37825) | DRSC04425 | 1.37e6 | 1.45e6 | 1.12e6 | 1.10e6 | inactive
CG8851 (GeneID 33575) | DRSC00718 | 1.55e6 | 1.29e6 | 1.08e6 | 1.30e6 | inactive
LRR (GeneID 35715) | DRSC06444 | 1.62e6 | 1.69e6 | 1.30e6 | 1.46e6 | inactive
stac (GeneID 43002) | DRSC13693 | 1.23e6 | 1.64e6 | 1.14e6 | 1.19e6 | inactive
stac (GeneID 43002) | DRSC14392 | 1.68e6 | 1.77e6 | 1.02e6 | 1.10e6 | inactive
GramD1B (GeneID 33552) | DRSC00426 | 1.56e6 | 1.48e6 | 1.17e6 | 1.32e6 | inactive
GramD1B (GeneID 33552) | DRSC00591 | 1.21e6 | 1.28e6 | 1.03e6 | 1.06e6 | inactive
CG15203 (GeneID 32038) | DRSC19650 | 1.59e6 | 1.49e6 | 1.02e6 | 1.17e6 | inactive
ctp (GeneID 31405) | DRSC18758 | 5.84e5 | – | 8.31e5 | – | inactive
His3.3B (GeneID 31848) | DRSC17773 | 1.61e6 | 1.56e6 | 1.02e6 | 1.16e6 | inactive
His3.3B (GeneID 31848) | DRSC18673 | 1.44e6 | 1.28e6 | 7.70e5 | 8.18e5 | inactive
CG12869 (GeneID 36616) | DRSC06208 | 1.54e6 | 1.66e6 | 1.34e6 | 1.43e6 | inactive
CG9702 (GeneID 43634) | DRSC16540 | 1.53e6 | 1.49e6 | 9.73e5 | 1.12e6 | inactive
Blos2 (GeneID 39234) | DRSC10147 | 1.49e6 | 1.58e6 | 1.19e6 | 1.27e6 | inactive
Mur82C (GeneID 40574) | DRSC12011 | 1.71e6 | 1.78e6 | 8.63e5 | 1.05e6 | active
Mur82C (GeneID 40574) | DRSC12212 | 1.34e6 | 1.30e6 | 1.35e6 | 1.40e6 | inactive
GATAe (GeneID 41945) | DRSC14223 | 1.48e6 | 1.65e6 | 1.04e6 | 1.11e6 | inactive
Ir94g (GeneID 42768) | DRSC15231 | 1.50e6 | 1.55e6 | 1.08e6 | 1.20e6 | inactive
Bka (GeneID 46032) | DRSC02757 | 1.65e6 | 1.62e6 | 1.27e6 | 1.42e6 | inactive
Hr39 (GeneID 35398) | DRSC03346 | 1.38e6 | 1.47e6 | 1.08e6 | 1.22e6 | inactive
CG18808 (GeneID 59169) | DRSC08539 | 1.28e6 | 1.36e6 | 1.11e6 | 1.15e6 | inactive
CG8736 (GeneID 35841) | DRSC07255 | 1.73e6 | 1.79e6 | 1.44e6 | 1.61e6 | inactive
CG14610 + asRNA:CR42738 | DRSC12554 | 1.64e6 | 1.87e6 | 1.23e6 | 1.36e6 | inactive
NAAT1 (GeneID 31457) | DRSC18300 | 1.48e6 | 1.49e6 | 9.73e5 | 1.13e6 | inactive
RhoGEF4 (GeneID 38806) | DRSC11011 | 1.37e6 | 1.44e6 | 1.21e6 | 1.16e6 | inactive
Sec10 (GeneID 42863) | DRSC17053 | 1.43e6 | 1.52e6 | 1.03e6 | 1.07e6 | inactive
Cerk (GeneID 40640) | DRSC12285 | 1.63e6 | 1.67e6 | 1.16e6 | 1.27e6 | inactive
rdo (GeneID 35077) | DRSC02452 | 1.28e6 | 1.37e6 | 1.23e6 | 1.24e6 | inactive
ACXB (GeneID 53427) | DRSC00845 | 1.53e6 | 1.54e6 | 1.25e6 | 1.40e6 | inactive
CG33080 (GeneID 31491) | DRSC18080 | 1.52e6 | 1.50e6 | 1.00e6 | 1.11e6 | inactive
CG33080 (GeneID 31491) | DRSC18081 | 1.64e6 | 1.62e6 | 1.02e6 | 1.20e6 | inactive
CG33080 (GeneID 31491) | DRSC18285 | 1.70e6 | 1.67e6 | 1.08e6 | 1.18e6 | inactive
CG5276 (GeneID 41373) | DRSC15759 | 1.44e6 | 1.52e6 | 1.27e6 | 1.29e6 | inactive
orion (GeneID 31712) | DRSC18213 | 1.68e6 | 1.66e6 | 1.08e6 | 1.19e6 | inactive
orion (GeneID 31712) | DRSC18214 | 1.51e6 | 1.50e6 | 1.02e6 | 1.15e6 | inactive
CG11756 (GeneID 32074) | DRSC19424 | 1.64e6 | 1.55e6 | 1.18e6 | 1.28e6 | inactive
CG5577 (GeneID 39985) | DRSC10519 | 1.40e6 | 1.40e6 | 1.26e6 | 1.31e6 | inactive
Rhau (GeneID 35339) | DRSC03200 | 1.10e6 | 1.27e6 | 8.91e5 | 6.94e5 | inactive
CG16970 (retired record) (GeneID 34740) | DRSC01310 | 1.45e6 | 1.48e6 | 1.01e6 | 1.09e6 | inactive
CG16970 (retired record) (GeneID 34740) | DRSC02549 | 1.56e6 | 1.58e6 | 1.30e6 | 1.46e6 | inactive
wit (GeneID 44096) | DRSC08741 | 1.31e6 | 1.38e6 | 1.25e6 | 1.14e6 | inactive
Fitm (GeneID 38596) | DRSC09772 | 1.44e6 | 1.47e6 | 1.06e6 | 9.75e5 | inactive
Trap1 (GeneID 35559) | DRSC05019 | 1.51e6 | 1.66e6 | 1.19e6 | 1.16e6 | inactive
djl (GeneID 40839) | DRSC12578 | 1.55e6 | 1.71e6 | 1.17e6 | 1.27e6 | inactive
Tsf1 (GeneID 32821) | DRSC20296 | 1.71e6 | 1.78e6 | 1.15e6 | 1.32e6 | inactive
TBC1D16 (GeneID 34431) | DRSC02841 | 1.52e6 | 1.66e6 | 1.27e6 | 1.38e6 | inactive
Atg18b (GeneID 35396) | DRSC03108 | 1.32e6 | 1.49e6 | 1.06e6 | 1.11e6 | inactive
CAH16 (GeneID 50101) | DRSC15371 | 1.54e6 | 1.58e6 | 1.11e6 | 1.19e6 | inactive
CG42813 + CG42814 | DRSC15939 | 4.96e5 | – | 8.32e5 | – | inactive
CG42813 + CG42814 | DRSC15940 | 1.43e6 | 1.45e6 | 9.74e5 | 1.09e6 | inactive
CG32687 (GeneID 31980) | DRSC18210 | 1.57e6 | 1.48e6 | 1.04e6 | 1.12e6 | inactive
CG32687 (GeneID 31980) | DRSC18237 | 1.60e6 | 1.50e6 | 1.02e6 | 1.15e6 | inactive
CG11164 (GeneID 32323) | DRSC19392 | 1.53e6 | 1.45e6 | 1.11e6 | 1.29e6 | inactive
Idgf2 (GeneID 34979) | DRSC03350 | 1.23e6 | 1.35e6 | 1.32e6 | 1.36e6 | inactive
cpa (GeneID 37387) | DRSC04080 | 1.46e6 | 1.52e6 | 1.14e6 | 1.23e6 | inactive
CG32631 (GeneID 32311) | DRSC19768 | 6.18e5 | – | 9.22e5 | – | inactive
Or98a (GeneID 43341) | DRSC16774 | 1.44e6 | 1.51e6 | 9.77e5 | 1.07e6 | inactive
natalisin (GeneID 5740700) | DRSC14966 | 1.31e6 | 1.36e6 | 9.85e5 | 1.01e6 | inactive
natalisin (GeneID 5740700) | DRSC14967 | 1.59e6 | 1.61e6 | 1.19e6 | 1.31e6 | inactive
vig (GeneID 34885) | DRSC03630 | 1.35e6 | 1.45e6 | 9.81e5 | 1.17e6 | inactive
vig (GeneID 34885) | DRSC03631 | 1.26e6 | 1.34e6 | 1.21e6 | 1.22e6 | inactive
loaf (GeneID 39325) | DRSC09130 | 1.37e6 | 1.51e6 | 1.11e6 | 1.23e6 | inactive
CG10803 (GeneID 31320) | DRSC17763 | 5.30e5 | – | 9.02e5 | – | inactive
Cyt-c1 (GeneID 38612) | DRSC10447 | 1.28e6 | 1.37e6 | 1.31e6 | 1.26e6 | inactive
CG6154 (GeneID 43184) | DRSC15977 | 1.74e6 | 1.89e6 | 1.05e6 | 1.17e6 | inactive
CG15576 (GeneID 31369) | DRSC18064 | 1.56e6 | 1.52e6 | 1.08e6 | 1.16e6 | inactive
CG3520 (GeneID 37708) | DRSC04383 | 1.57e6 | 1.70e6 | 1.23e6 | 1.32e6 | inactive
hgo (GeneID 34552) | DRSC03544 | 1.88e6 | 1.85e6 | 1.20e6 | 1.36e6 | inactive
bbc (GeneID 36496) | DRSC06958 | 1.53e6 | 1.64e6 | 1.03e6 | 1.17e6 | inactive
CG32568 (GeneID 32659) | DRSC19913 | 1.51e6 | 1.50e6 | 1.16e6 | 1.21e6 | inactive
CG6294 + CG6299 + CG15642 | DRSC19981 | 1.52e6 | 1.48e6 | 1.06e6 | 1.13e6 | inactive
CG34135 + Nasp | DRSC16397 | 1.28e6 | 1.35e6 | 1.10e6 | 1.26e6 | inactive
Rgk2 (GeneID 37132) | DRSC06503 | 1.64e6 | 1.64e6 | 1.15e6 | 1.27e6 | inactive

Ordered by “S2R+ cell number, rep 2” (descending): 7 of the entries above.
target | DRSC id | Kc cell number, rep 1 | Kc cell number, rep 2 | S2R+ cell number, rep 1 | S2R+ cell number, rep 2 | call
ACXB (GeneID 53427) | DRSC00845 | 1.53e6 | 1.54e6 | 1.25e6 | 1.40e6 | inactive
Cerk (GeneID 40640) | DRSC12285 | 1.63e6 | 1.67e6 | 1.16e6 | 1.27e6 | inactive
rdo (GeneID 35077) | DRSC02452 | 1.28e6 | 1.37e6 | 1.23e6 | 1.24e6 | inactive
CG33080 (GeneID 31491) | DRSC18081 | 1.64e6 | 1.62e6 | 1.02e6 | 1.20e6 | inactive
CG33080 (GeneID 31491) | DRSC18285 | 1.70e6 | 1.67e6 | 1.08e6 | 1.18e6 | inactive
CG33080 (GeneID 31491) | DRSC18080 | 1.52e6 | 1.50e6 | 1.00e6 | 1.11e6 | inactive
Sec10 (GeneID 42863) | DRSC17053 | 1.43e6 | 1.52e6 | 1.03e6 | 1.07e6 | inactive
